# Several values for one entry are separate records, joined by “and”; a condition that tells them apart may be missing. Identical values can stand only once. Out of some 78,000 compounds screened, about 1,800 (2.3%) were called active. The shares of active, inactive and inconclusive entries below differ from those in the screen. No stated cut-off is given here; in the data, active means inhibition above about 30%; inconclusive means mostly about 10% to 28%; inactive means weaker than that.
# Amino acid sequences for entries named in this document (tags omitted). A change or cut given only in a name is not applied to a line headed by its entry.
# UniProt Q01638: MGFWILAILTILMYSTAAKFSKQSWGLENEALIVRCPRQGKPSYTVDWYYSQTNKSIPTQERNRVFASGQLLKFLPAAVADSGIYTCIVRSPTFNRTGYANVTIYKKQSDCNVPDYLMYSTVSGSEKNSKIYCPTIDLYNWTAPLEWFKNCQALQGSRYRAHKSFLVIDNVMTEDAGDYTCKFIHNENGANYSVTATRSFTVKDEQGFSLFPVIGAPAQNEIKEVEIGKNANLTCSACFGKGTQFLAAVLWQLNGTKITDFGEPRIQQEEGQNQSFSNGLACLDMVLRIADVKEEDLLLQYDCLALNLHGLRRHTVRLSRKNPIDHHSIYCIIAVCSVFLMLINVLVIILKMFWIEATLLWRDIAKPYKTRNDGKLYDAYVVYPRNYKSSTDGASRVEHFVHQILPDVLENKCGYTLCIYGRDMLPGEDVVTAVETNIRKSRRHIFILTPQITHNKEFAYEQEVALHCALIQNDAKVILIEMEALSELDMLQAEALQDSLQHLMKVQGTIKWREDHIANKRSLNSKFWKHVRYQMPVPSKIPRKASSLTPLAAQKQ
# Target: Interleukin-1 receptor-like 1 (Homo sapiens) (UniProt Q01638)
# Test: blocks human ST2 binding to IL-33, primary screen, biochemical, AlphaLISA (AID 1259354)
# Details: AlphaLISA ST2-Fc/biotin-IL-33 interaction, 1 h; at 17 µM, hits give high values
row,SMILES,inhibition
1,COc1cc(C2Nc3ccccc3-c3nnc(SC)nc3O2)cc([N+](=O)[O-])c1O (stereo unspecified),inactive
2,O=C1NC(=Nc2ccccc2Cl)S/C1=C/c1ccc([N+](=O)[O-])cc1,active: 31%
3,O=C(Nc1cccc(-c2cn3ccccc3n2)c1)c1cc2cc(Br)ccc2oc1=O,inconclusive: 20%
4,CCOc1ccc(N(CC)c2ncnc3nc[nH]c23)cc1,inconclusive: 11%
5,O=C1c2sc3nnc(-c4ccccc4)c(=O)n3c2C(=O)N1Cc1ccccc1,inconclusive: 12%
6,O=C(Cc1ccc(Br)cc1)Nc1nc2ccc([N+](=O)[O-])cc2s1,inconclusive: 28%
7,CCSc1nnc2c(n1)OC(c1ccc(OC)cc1)Nc1ccccc1-2 (stereo unspecified),inactive
8,Cc1cccc(CN2CCC(CNS(=O)(=O)c3ccc4c(c3)oc(=O)n4C)CC2)c1,inconclusive: 15%
9,O=[N+]([O-])c1cccc(C=Nc2ccc3nc(-c4cccc(F)c4)oc3c2)c1O,inconclusive: 10%
10,Fc1ccc(Br)cc1C1Nc2cccc3cccc(c23)N1,inconclusive: 15%
11,c1ccc(OCCCCN2CCCC2)cc1,inconclusive: 16%
12,CN(Cc1ccccc1)Cc1cn([C@H]2CO[C@H]3[C@@H]2OC[C@@H]3NC(=O)c2ccc(N(C)C)cc2)nn1,inconclusive: 11%
13,CCOc1ccc(-c2cnc(C3CCOC3)[nH]2)cc1 (stereo unspecified),inconclusive: 11%
14,O=C(COc1ccccc1)Nc1c(C(=O)Nc2ccc(F)cc2)oc2ccccc12,inactive
15,CCNC(=O)N1CCC(NC(=O)c2cc(CC(C)C)nn2C)CC1,inconclusive: 12%
16,COc1ccc(-n2ncc3c2CC(C)(C)CC3NC(=O)CCn2nc(C)cc2C)cc1 (stereo unspecified),inconclusive: 10%
17,O=C(CN1C(=O)/C(=C\c2ccc(Cl)cc2)Sc2ccccc21)NCCN1CCCC1,active: 33%
18,Cc1ccccc1-c1cnnc(N2CCCC(c3ccccc3)C2)n1 (stereo unspecified),inconclusive: 14%
19,Cn1c(=O)c2c(nc([N+](=O)[O-])n2Cc2ccc(F)cc2)n(C)c1=O,inactive
20,O=c1c(F)cn(C2CCCO2)c(=O)n1Cc1c(Cl)cccc1Cl (stereo unspecified),inconclusive: 11%
21,O=C(N[C@H]1CO[C@H]2[C@@H]1OC[C@@H]2Nc1nccc(-c2cccs2)n1)C1CC1,inconclusive: 14%
22,CCc1nc(N)sc1C(=O)N1CC(Oc2ccccc2C)C1,inconclusive: 20%
23,O=C(NC1CC(=O)N(C2CCCCCC2)C1)c1ccc2n[nH]nc2c1 (stereo unspecified),inactive

row,SMILES,inhibition
1,COc1cccc(-n2c(=O)c3sccc3n(CC(=O)NC3CCCC3)c2=O)c1,inconclusive: 22%
2,CC1(C)OC(=O)C(=CNc2cccc(C(F)(F)F)c2)C(=O)O1,inactive
3,Cc1cc(C)c(CN2C(=O)C(=O)c3ccccc32)cc1CN1C(=O)C(=O)c2ccccc21,inconclusive: 23%
4,Cc1ccc(N2CCN(C(=O)c3cccc([N+](=O)[O-])c3C)CC2)cc1Cl,inactive
5,CCCc1nnc(C[C@@H]2C[C@@H](C(C)C)[C@H](CN3CCOCC3)C=C2C)o1,inconclusive: 13%
6,C=CCSc1nnc2c(n1)OC(c1ccc(OC)c(OC)c1)N(C(C)=O)c1ccccc1-2 (stereo unspecified),inconclusive: 18%
7,O=C(Nc1nc2ccc3ccccc3c2s1)c1ccc2c(c1)OCCO2,inactive
8,COc1ccc(OC)c(NC(=O)CSc2nc3c([nH]c4ccccc43)c(=O)n2C)c1,inconclusive: 14%
9,Cn1cc(N)c(C(=O)Nc2ccc3c(c2)C(=O)NC3=O)n1,inconclusive: 23%
10,Cc1cc(NC(=O)CCCn2nc(C)c([N+](=O)[O-])c2C)no1,inconclusive: 10%
11,COc1ccc(N=Cc2ccc(Br)c([N+](=O)[O-])c2)cc1,active: 38%
12,COC(C)c1cccc(-c2ncccc2Cl)c1 (stereo unspecified),inconclusive: 10%
13,Cc1cc(Cl)ccc1-c1ccc(C=O)o1,inactive
14,Cc1ccc(Nc2cc(C)nc(N3CCN(S(=O)(=O)c4cccc(C)c4)CC3)n2)cc1,inconclusive: 21%
15,COc1ccc(C(CC(=O)c2ccccc2)Nc2ccc(F)cc2)cc1 (stereo unspecified),inconclusive: 27%
16,CC1CCc2c(sc(NC(=O)C(C(C)C)N3C(=O)c4ccccc4C3=O)c2C#N)C1 (stereo unspecified),inconclusive: 27%
17,CC(C)(C)c1ccnc(N[C@H]2CO[C@H]3[C@@H]2OC[C@@H]3NC(=O)CCC(=O)O)n1,inconclusive: 17%
18,CC(C)c1ccc(S(=O)(=O)NCc2nc3cccnc3n2Cc2ccccc2Cl)cc1,inconclusive: 10%
19,Cc1ccc(Cn2c(CNC(=O)c3ccc(C)cc3)nc3cccnc32)cc1,inactive
20,Cc1ccc(C(C)C)c(OCC(=O)OCCN2C(=O)c3ccccc3C2=O)c1,inactive
21,CS(=O)(=O)N(CC(=O)N1CCN(c2ccccc2F)CC1)c1ccccc1Br,inactive
22,Cc1noc(C)c1CC(=O)N1CCCC(CCc2ccc(F)cc2)C1 (stereo unspecified),inactive
23,CC(C)=CCC[C@](C)(O)[C@H]1CC[C@]2(C)[C@@H]1[C@H](O)CC1[C@@]3(C)CC[C@H](O)C(C)(C)C3[C@@H](O[C@@H]3O[C@H](CO)[C@@H](O)[C@H](O)[C@H]3O[C@@H]3OC[C@@H](O)[C@H](O)[C@H]3O)C[C@]12C (stereo partly specified),inconclusive: 12%

row,SMILES,inhibition
1,O=C(C[C@@H]1O[C@H](CNCc2ccccn2)[C@@H](O)[C@H]1O)NCc1ccc(F)cc1,inconclusive: 21%
2,O=C(NCC1CCCO1)c1cc2cc3ccc(Cl)cc3nc2o1 (stereo unspecified),inconclusive: 16% and inconclusive: 11%
3,C=CCOc1ccc(C2C(C(=O)OC)=C(C)N=C3SCCC(=O)N32)cc1OC (stereo unspecified),inactive
4,N#Cc1ccc(NC(=O)c2noc3c2CCCCC3)cc1,inconclusive: 20%
5,CN(C)c1cc(N)c2cc(Cl)ccc2n1,inconclusive: 19%
6,Oc1oc(-c2ccccc2F)nc1C=Nc1ccc(Br)cc1Br,inconclusive: 18%
7,O=C(CN1CCOCC1)Nc1c(-c2ccccc2)c2cc(Br)ccc2[nH]c1=O,inconclusive: 14%
8,COc1ccc(C)cc1NC(=O)c1cncc(Br)c1,inactive
9,Clc1ccccc1/C=C/c1nc2ccccc2[nH]1,inconclusive: 16%
10,NC(=O)COc1ccc(C(=O)N[C@@H]2CN(Cc3ccccn3)CCC[C@H]2O)cc1,inconclusive: 21%
11,O=C(CSc1nnc(-c2cccnc2)n1-c1ccccc1)NCc1cccnc1,inconclusive: 13%
12,Cc1ccc(CN2CC[C@H](c3nc4ccccc4n3C)C2)o1,inconclusive: 17%
13,Cc1nccn1-c1ccc(NC(=O)C2CCCN(C/C=C/c3ccco3)C2)cc1 (stereo unspecified),inconclusive: 12%
14,C=CCn1c(=O)[nH]c2cc(C(=O)NCCSCc3ccccc3)ccc2c1=O,inactive
15,O=C(Nc1ccccc1)Nc1cccc([N+](=O)[O-])c1,inactive
16,CC(C)OCC1CC(CC(=O)Nc2ccc([N+](=O)[O-])cc2)C(=O)O1 (stereo unspecified),inconclusive: 10%
17,Cc1c(NCc2ccccn2)cccc1C(=O)NCc1noc(C(C)C)n1,inactive
18,Cc1ccc(C)c(CN2C(=O)CSc3ccc(C(=O)NCC4CCCO4)cc32)c1 (stereo unspecified),inactive
19,CCc1c(C)c(C#N)c2nc3ccccc3n2c1NCCN(C)C,inconclusive: 11%
20,CC(=O)c1ccc(N2CCN(Cc3ccccn3)CC2)cc1,inconclusive: 16%
21,CCOc1ccccc1C(=O)N1CCN=C1SC,inconclusive: 19%
22,COc1cccc(OCC(=O)Nc2cc(N3CCCS3(=O)=O)ccc2OC)c1,inactive
23,Cc1ccc(Nc2cc(C)nc(N3CCN(S(=O)(=O)c4ccc(I)cc4)CC3)n2)cc1,inconclusive: 26%

row,SMILES,inhibition
1,COc1ccc(-c2cc(C(=O)N3CC4(C)CC3CC(C)(C)C4)no2)cc1OC (stereo unspecified),inactive
2,CCN(Cc1nc(COC)no1)C(=O)c1ccc2cc[nH]c2c1,inactive
3,Cc1ccc(C(=O)Nc2ccc([N+](=O)[O-])cc2Cl)c(Cl)c1,inconclusive: 14%
4,O=C1CSC(SCC(=O)Nc2ccccc2Cl)=N1,inconclusive: 14%
5,CCc1ccc(-c2nccn2Cc2ccc3c(c2)OCO3)nc1,inconclusive: 19%
6,CC(=O)c1cccc(C(=O)N[C@H]2C[C@H]3C(=O)N(C)CC(=O)N3C2)c1,inconclusive: 20%
7,Cc1ccc2oc(C(=O)NC3C(=O)Nc4cccc(C)c43)cc2c1 (stereo unspecified),inactive
8,COc1cc(NC(=O)/C=C/c2ccccc2)c2ncccc2c1,active: 35%
9,COc1cccc(C2N(c3ccc(Cl)c(Cl)c3)C(=O)C3CCCN32)c1 (stereo unspecified),inactive
10,Cn1c(N2CCOCC2)nc2c1c(=O)n(Cc1ccc(Cl)cc1)c(=O)n2C,inconclusive: 21%
11,CCc1ccccc1NC(=O)c1cc(OC)c(OC)c(OC)c1,inconclusive: 11%
12,COc1ccc(-n2nc3c(c2NC(=O)c2cc4ccccc4cc2OC)CSC3)cc1,inconclusive: 13%
13,Cc1nn(C(=O)c2cccc([N+](=O)[O-])c2)c(C)c1Cl,inconclusive: 23%
14,O=C(NCC1CCCN(Cc2cccc(O)c2)C1)c1cccnn1 (stereo unspecified),inconclusive: 20%
15,CN(Cc1ccon1)C(=O)[C@@H]1C[C@H](NC(=O)c2ccc(Cl)cc2)CN1C,inconclusive: 14%
16,COc1cc(SC)ccc1C(=O)Nc1ccc(OCC(=O)N2CCOCC2)cc1,inconclusive: 16%
17,CCCCSc1oc(-c2ccco2)nc1S(=O)(=O)c1ccc(Cl)cc1,inactive
18,CCOC(=O)C1(NC(=O)Cc2csc(C)n2)CCC1,inconclusive: 13%
19,Cc1ccc(-c2csc(/C(C#N)=C\c3ccc(C)o3)n2)cc1,active: 51%
20,CCCc1cc(C(=O)N2CCC3(CC2)CC3C(=O)NCCc2cccc(OC)c2)no1 (stereo unspecified),inconclusive: 15%
21,CNC(=O)CC1CCN(Cc2cc(C(C)(C)C)ccc2O)CC1,inconclusive: 11%
22,O=C(Cc1c(C(=O)O)[nH]c2ccc(Cl)cc12)Nc1cccnc1,inconclusive: 22%

# From PubChem BioAssay AID1259354 (Paczesny and Yang Labs, IUPUI and University of Michigan, 2018)
